“Also recorded” adds a separate entry of the source.
System: human telomere 22-mer oligonucleotide (quadraplex structure)
Assay: CD spectrometry of human telomere 22-mer oligonucleotide with naphthyridine dimer
Settings: 0 to 50 μM, 7° C., FIG. 5; listed as naphthyridine dimer
Source text: The telomere structure change to be caused by the addition of the compound of formula (III) (naphthyridine dimer) to the structure was investigated through CD spectrometry. In FIG. 5, 1 indicates the CD spectrum of human telomere alone, and 2 indicates the CD spectrum of human telomere with naphthyridine dimer added thereto. The vertical axis indicates the angle θ (degree·cm^2·dmol^−1); and the horizontal axis indicates the wavelength (nm).
A solution of a 22-mer oligonucleotide having the following base sequence: 5′-[…]3′ (SEQ ID NO: 9) in a sodium cacodylate buffer (10 mM, pH 7.0, NaCl 100 mM) was heated at 70° C. for 5 minutes, and then gradually cooled so that the oligomer could form a quadraplex structure (see Structure, 263, 1 (1993)). A varying concentration (0 to 50 μM) of a naphthyridine dimer was added to the resulting solution, and then left at 7° C. for 5 minutes, and the circular dichroic spectrum (CD spectrum) of the sample was measured at that temperature.

Cc1ccc2ccc(NC(=O)CCNCCC(=O)Nc3ccc4ccc(C)nc4n3)nc2n1 [compound of formula (III), dinaphthyridinamide]
change of CD spectrum of human telomere on addition: significantly changes the spectral pattern; also recorded: greatly varied

Source: patent US7351531B2, “Molecules capable of binding to telomere and the like and method with the use of the same” (Japan Science and Technology Corporation, priority 2001, dated 2008)
